## Results of single-concentration screens

The chains behind the UniProt entries cited, without tags or fusion partners. Residues count along the entry.
UniProt A4I591, 1-473: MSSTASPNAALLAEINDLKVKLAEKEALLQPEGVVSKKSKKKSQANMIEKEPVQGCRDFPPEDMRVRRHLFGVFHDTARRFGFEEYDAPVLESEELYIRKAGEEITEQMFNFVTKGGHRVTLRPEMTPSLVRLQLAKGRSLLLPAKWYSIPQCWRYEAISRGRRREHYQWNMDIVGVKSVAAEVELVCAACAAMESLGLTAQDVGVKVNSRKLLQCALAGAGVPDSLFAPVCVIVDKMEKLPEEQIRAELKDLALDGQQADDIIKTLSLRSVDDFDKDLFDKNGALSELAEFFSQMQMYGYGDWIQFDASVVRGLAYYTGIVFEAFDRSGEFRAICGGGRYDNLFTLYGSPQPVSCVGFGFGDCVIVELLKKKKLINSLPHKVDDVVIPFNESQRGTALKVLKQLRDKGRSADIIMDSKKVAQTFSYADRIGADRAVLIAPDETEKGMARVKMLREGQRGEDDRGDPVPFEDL

Measurements from “University of Dundee, Small-Polar-MMV Screening Library” (2021), ChEMBL document CHEMBL3988442.

Each number is a percent effect as filed. The controls that fix the scale are not given in the record; negative values are as filed. This is an unselected part of the compounds tested.

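Enzyme assay of histidyl-tRNA synthetase; the read-out is not stated. Target: Histidine-tRNA ligase, Leishmania infantum (UniProt A4I591). Compounds at 30 µM. Direction is inferred from retests: higher values go with stronger inhibition. The assay is labelled LdHisRS but filed under L. infantum. Of about 69,000 compounds tested this way, about 410 (0.6%) reached 50% or more in at least one test.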

Compound	percent effect
COCCN(C)C[C@@H]1CN(C(=O)c2c(F)ccc(OC)c2F)C[C@@H]1CO	9.677
Cc1cc(C)n(CCC(=O)N2CCCC(c3nc(C(C)C)no3)C2)n1 (stereo not drawn)	12.07
CN1CCN(CCO)C(=O)C12CCN(Cc1ccsc1)CC2	17.07
O=S(=O)(C1CC1)N1CCO[C@H]2[C@H](OCCN3CCCC3)CC[C@@H]21	15.09
CN(C)S(=O)(=O)N1CC[C@]2(O)CCN(CCc3cccc(F)c3)C[C@@H]2C1	43.37
Cc1cccc(C(=O)N2CC[C@H]3C[C@@H](C)O[C@@H]3C2)n1	7.692
NC(=O)C1CCCN1Cc1cccc(NC(=O)c2cccs2)c1 (stereo not drawn)	-0.8929
O=C1CCC(=O)N1CCN1CCOC(c2ccsc2)C1 (stereo not drawn)	7.563
CC(=O)N1CCCN(C(=O)NCCNc2ccccn2)CC1	5.505
CC(C)[C@H]1CN(CCS(C)(=O)=O)C[C@@H]1NC(=O)c1ccc(=O)[nH]c1	18.28
Cc1nc2c(c(N[C@H](C(N)=O)C(C)C)n1)Cc1ccccc1OC2	39.76
O=C(NCC1CCOCC1)[C@H]1C[C@@H]2CCN(c3nncs3)C[C@@H]2O1	20.83
CC(C)C[C@@H]1N[C@H](C(=O)NCC2CC2)Cc2c[nH]c3cccc1c23	14.86
Cc1nn(C)c(C)c1C1CCCN1CC(=O)NC(C1CC1)C1CC1 (stereo not drawn)	23.81
CC(C)Nc1cc(-c2c[nH]nc2C2CCN(C(=O)C3CC3)C2)ccn1 (stereo not drawn)	12.68
O=C1N(Cc2ccc(F)c(F)c2)CCCC12CCN(C1CCCC1)C2 (stereo not drawn)	21.05
Cc1ccsc1CNC(=O)CCc1c(C)nc2cc(O)nn2c1C	19.13
Cc1ccc2nc(NCCCN3CCCCCC3=O)n(C)c(=O)c2c1	25.71
CN(C)S(=O)(=O)c1ccc(CNC(=O)c2cn3c(n2)CNCC3)cc1	-3.226
COCCC(=O)N1C[C@H]2CC[C@@H]1CN(C1Cc3ccccc3C1)C2	3.279
CC(C)CNc1c(NCc2ccco2)c(=O)c1=O	15.22
O=C(NCCCN1CCc2ccccc2C1)c1cccnc1O	25.68
COC[C@@H]1CC[C@H]2[C@H](CCN2S(=O)(=O)c2ccc(OC)cc2)O1	3.922
COC1COC2(CCN(C(=O)c3cocn3)CC2)C1 (stereo not drawn)	20
CS(=O)(=O)N1CCOCC2(CCN(c3cnccn3)CC2)C1	20
COc1ccc(CNCCc2cc(F)cc3c2OCOC3)cc1O	20.19
Cc1ccc(CN(CCCN2CCOCC2)Cc2cnc(C)n2C)o1	11.72
CC(C)CN1CCc2[nH]nc(C(=O)N3CCCC3)c2C1	-4
O=C(CCn1cccn1)NCC(c1cccs1)N1CCCC1 (stereo not drawn)	11.29
COCC(C)NC(=O)CCSc1ccc(F)cc1 (stereo not drawn)	-4.762
COc1ccccc1OCC(=O)N1CCN(Cc2noc(C)n2)CC1	20.75
Cc1cc(C)n(CC(=O)N2CCC(c3ccn4nccc4n3)CC2)n1	12.08
CCCc1c(C(=O)N2CCN(c3ncccn3)CC2)cnn1C	11.61
CC(Cn1cccn1)NC(=O)NCCc1cccnc1 (stereo not drawn)	18.18
OCC1(O)CCN(Cc2ccc(C3CCCCO3)o2)CC1 (stereo not drawn)	17.33
CN(C)C(=O)CO[C@H]1CN(Cc2cccc(C#N)c2)[C@@H]2COC[C@H]12	-11.43
C=Cc1ccc(CN2CCCC3(CNC(=O)c4ccccc4O3)C2)cc1 (stereo not drawn)	11.46
CCc1ccc(C(=O)N2CCN(Cc3ccc(F)cc3)CC2)s1	6.78
COCCNC(=O)Cn1cc(NC(=O)c2ccc(C(C)(C)C)cc2)cn1	6.329
O=C1N(c2ccsc2)CCC12CCCN(Cc1cccnc1)C2 (stereo not drawn)	22.81
CCN1Cc2cc3c(cc2NCCC1=O)OCO3	24.74
COCc1cnc2n1CCN(S(=O)(=O)N(C)C)C2C (stereo not drawn)	6.897
Cc1nn(Cc2ccc(C(=O)NCCCN3CCOCC3)o2)c(C)c1Cl	20.88
Cc1nc(CN2CCN(CC(O)CN3CCOCC3)CC2)oc1C (stereo not drawn)	7.254
Cc1ccc(S(N)(=O)=O)cc1C(=O)N1C[C@@H](CN(C)C)[C@@H](CO)C1	11.43
Cc1nc(C)n(CC2CCCN2CCOc2ccc(C#N)cc2)n1 (stereo not drawn)	14.61
Cc1ccc(C(=O)N2CCN(CCCSCC#N)CC2)cc1F	9.574
COCCCNC(=O)NCc1nc(C)c(C)o1	24.24
Cn1ccnc1CNC(=O)c1cncc(C2CCNCC2)n1	4.196
CCC(CC)C(CNC(=O)Nc1ccc(C)cc1)N1CCOCC1 (stereo not drawn)	14.61
CCNC(=O)C1CCCN(c2cccc(C(F)(F)F)n2)C1 (stereo not drawn)	16.13
Cc1cccc(CN2C(=O)CC[C@@H]3[C@H]2CCN3CC2CCOCC2)n1	13.87
O=C(NCc1ccc(C(=O)O)o1)c1ccc(F)cc1	21.92
O=C(NCCC1CN(Cc2c[nH]cn2)CCO1)Nc1ccccc1 (stereo not drawn)	8.889
c1ccc(Cc2noc(CN3CCCCC3C3OCCO3)n2)cc1 (stereo not drawn)	7.895
CC1CCN(C(=O)C2CCN(S(C)(=O)=O)CC2)c2ccccc21 (stereo not drawn)	20
COc1cccc(N2C(=O)CC3(CCCNC3)C2=O)c1 (stereo not drawn)	15.38
Cc1ccnc2c1NC(=O)CN2C(=O)CCC(F)(F)F	10.85
COc1ccc(N2CCN(C(=O)NC(C)c3nncn3C)CC2)cc1 (stereo not drawn)	10.34
O=C(NC1CC1)C1CN(Cc2ccc3c(c2)OCCO3)CCN1 (stereo not drawn)	9.167
CC1(C)OC(=O)N(CC(=O)N2CCC(c3ccccc3Cl)C2)C1=O (stereo not drawn)	20
CN1[C@H]2CC[C@@H]1CN(C(=O)CCc1csc(N)n1)CC2	13.89
CC(C#N)CN(C)C(=O)CCNC(=O)OCC(F)(F)F (stereo not drawn)	16.33
Cc1nc(C(=O)N(Cc2c(C)nn(C)c2C)C(C)C)cs1	9.211
Cc1cccc(C2(C(=O)NCCCn3cccn3)CC2)c1	21.15
CCN(CC)C(CNC(=O)CCc1nc(C(C)C)no1)c1ccco1 (stereo not drawn)	-2
Cc1cc(C(=O)N2CCC[C@]3(C[C@@H](OCC4CC4)CO3)C2)no1	4
CC(=O)Nc1ncc(S(=O)(=O)Nc2cccc(O)c2)s1	15.52
CC(NC(=O)Cn1cccn1)c1ccc2c(c1)OCCO2 (stereo not drawn)	12.17
Cc1cnccc1NC(=O)CCc1ccsc1	9.333
O=C(CCn1ccccc1=O)N1CCCC(COc2ccc(F)cc2)C1 (stereo not drawn)	14.75
CCOc1cc(Cl)c(CN2CCC3(CCCNC3=O)C2)cc1OC (stereo not drawn)	0
Cc1nc(C)c(C)c(NCCSCc2[nH]cnc2C)n1	9.677
CC(=O)c1cccc(NC(=O)Cn2cnc(-c3ccccc3)cc2=O)c1	12.17
COCCn1cc(C(=O)NCCS(N)(=O)=O)c2ccccc21	5.759
COc1cc(COCC2CCN(Cc3ccccn3)CC2)cc(OC)c1	12
O=C(c1cc[nH]n1)N1CC[C@@H]2CN(Cc3cccnc3)S(=O)(=O)[C@@H]2CC1	10.53
Cn1nc(CN2CCCC2)c2c1CN(CC1CC1)CC2	15.09
CC(CCc1ccccc1)N1CCC(C(=O)NCc2ccccc2)CC1 (stereo not drawn)	23.68
Cc1cc(-c2cnc(N3CCOCC3)nc2-c2ccc(C)s2)on1	27.54
Cc1cc(NC(=O)NCc2ccc(S(=O)(=O)N3CCCC3)s2)no1	16.88
CC(C)(C)c1cc(C[C@H]2CNCC[C@H]2CC(=O)N2CCCCC2)no1	-52.78
COc1ccc(C(=O)NCc2cccnc2N2CCOCC2)o1	4.167
CCCS(=O)(=O)N1CCOC2(COCCN(C(C)=O)C2)C1 (stereo not drawn)	13.79
CCN1CC2(CCN(Cc3nc(CSC)no3)CC2)CC1=O	9.677
O=C(c1ccncc1)N1C[C@@H]2CCN(c3cccnc3)C[C@@H]2C1	23.53
CC(C)NCc1nc(-c2ccc3c(c2)OCO3)c[nH]1	16.96
Cc1cc(CSc2ccccn2)on1	2.667
Cn1cc(CN2CCC3(CCCN3Cc3cccnc3)CC2)cn1	17.74
CN(CC(=O)N(C)C1CCCCC1)C1CCc2ccccc21 (stereo not drawn)	23.2

Some entries from above, unchanged:

- O=C(NCC1CCOCC1)[C@H]1C[C@@H]2CCN(c3nncs3)C[C@@H]2O1 | 20.83%
- Cc1ccc2nc(NCCCN3CCCCCC3=O)n(C)c(=O)c2c1 | 25.71%
- Cc1cccc(C2(C(=O)NCCCn3cccn3)CC2)c1 | 21.15%
- CC(=O)c1cccc(NC(=O)Cn2cnc(-c3ccccc3)cc2=O)c1 | 12.17%
- COCCNC(=O)Cn1cc(NC(=O)c2ccc(C(C)(C)C)cc2)cn1 | 6.329%
- O=C(NCCCN1CCc2ccccc2C1)c1cccnc1O | 25.68%